In the supplement of paper PMC11006884:
Shown are results outside the selection of targets with a hit, which stands elsewhere. The data scatter; read single values as rough. The list shows a part of the results, in another mix than the full data.

The chains behind the UniProt entries cited, without tags or fusion partners. Where a name states a change or a piece, a line headed by the entry shows the natural chain unless it says otherwise.
UniProt Q9UMS4: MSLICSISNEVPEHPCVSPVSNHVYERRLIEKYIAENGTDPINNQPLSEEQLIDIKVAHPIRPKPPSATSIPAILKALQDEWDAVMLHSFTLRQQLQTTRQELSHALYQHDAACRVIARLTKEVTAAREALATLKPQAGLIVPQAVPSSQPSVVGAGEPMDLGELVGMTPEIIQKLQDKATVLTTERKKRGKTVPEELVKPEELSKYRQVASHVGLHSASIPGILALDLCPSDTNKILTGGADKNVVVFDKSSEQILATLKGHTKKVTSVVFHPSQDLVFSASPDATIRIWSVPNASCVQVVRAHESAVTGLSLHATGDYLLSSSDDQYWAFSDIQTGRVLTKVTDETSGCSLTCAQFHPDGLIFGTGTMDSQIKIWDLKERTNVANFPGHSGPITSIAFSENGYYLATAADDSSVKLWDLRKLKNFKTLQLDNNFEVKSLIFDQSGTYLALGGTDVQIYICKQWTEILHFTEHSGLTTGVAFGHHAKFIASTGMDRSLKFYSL
UniProt Q9UJS0: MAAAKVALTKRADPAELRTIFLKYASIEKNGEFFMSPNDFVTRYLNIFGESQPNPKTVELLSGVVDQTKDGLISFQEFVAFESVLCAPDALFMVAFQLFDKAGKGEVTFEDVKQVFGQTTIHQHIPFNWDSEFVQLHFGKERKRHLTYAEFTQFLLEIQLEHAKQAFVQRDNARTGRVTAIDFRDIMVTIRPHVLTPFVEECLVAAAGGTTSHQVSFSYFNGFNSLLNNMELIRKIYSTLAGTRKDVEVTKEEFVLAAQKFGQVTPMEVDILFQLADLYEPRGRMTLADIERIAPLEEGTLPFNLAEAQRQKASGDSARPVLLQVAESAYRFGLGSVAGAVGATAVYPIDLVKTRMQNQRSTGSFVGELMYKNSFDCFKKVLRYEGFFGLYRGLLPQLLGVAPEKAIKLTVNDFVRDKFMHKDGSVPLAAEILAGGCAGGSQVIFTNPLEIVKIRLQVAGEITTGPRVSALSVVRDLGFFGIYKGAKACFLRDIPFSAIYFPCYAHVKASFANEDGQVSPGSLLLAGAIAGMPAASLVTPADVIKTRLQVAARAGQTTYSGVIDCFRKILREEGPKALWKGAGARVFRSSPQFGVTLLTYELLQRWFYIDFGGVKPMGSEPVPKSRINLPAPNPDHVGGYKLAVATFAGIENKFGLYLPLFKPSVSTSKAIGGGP
UniProt Q9UJX6, whole entry: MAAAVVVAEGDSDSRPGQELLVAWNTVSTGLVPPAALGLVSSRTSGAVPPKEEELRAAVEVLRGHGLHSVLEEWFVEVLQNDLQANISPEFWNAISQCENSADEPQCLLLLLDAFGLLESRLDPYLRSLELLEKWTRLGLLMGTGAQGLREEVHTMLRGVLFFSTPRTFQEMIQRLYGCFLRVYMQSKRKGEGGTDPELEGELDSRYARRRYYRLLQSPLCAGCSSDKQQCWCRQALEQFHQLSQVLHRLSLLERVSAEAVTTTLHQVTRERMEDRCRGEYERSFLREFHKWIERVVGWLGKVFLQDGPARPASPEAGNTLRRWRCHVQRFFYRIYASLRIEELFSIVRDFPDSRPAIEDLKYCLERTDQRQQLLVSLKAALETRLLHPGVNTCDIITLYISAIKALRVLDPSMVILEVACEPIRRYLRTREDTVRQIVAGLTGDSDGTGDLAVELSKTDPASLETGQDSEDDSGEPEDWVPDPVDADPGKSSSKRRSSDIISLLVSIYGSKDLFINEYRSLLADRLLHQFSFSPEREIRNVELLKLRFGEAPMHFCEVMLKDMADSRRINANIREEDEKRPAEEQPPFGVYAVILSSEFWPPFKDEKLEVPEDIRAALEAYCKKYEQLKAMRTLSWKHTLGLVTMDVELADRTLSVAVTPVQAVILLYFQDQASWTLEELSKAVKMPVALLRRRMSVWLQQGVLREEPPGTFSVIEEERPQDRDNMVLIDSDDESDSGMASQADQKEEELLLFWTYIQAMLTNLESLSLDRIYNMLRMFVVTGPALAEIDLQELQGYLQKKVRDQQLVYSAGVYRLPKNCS
UniProt Q9Y3D0: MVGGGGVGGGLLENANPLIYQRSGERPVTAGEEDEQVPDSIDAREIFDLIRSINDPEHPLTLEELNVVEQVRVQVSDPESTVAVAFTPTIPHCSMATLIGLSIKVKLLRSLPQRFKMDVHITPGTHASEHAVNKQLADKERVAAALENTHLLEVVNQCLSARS
UniProt Q9Y314: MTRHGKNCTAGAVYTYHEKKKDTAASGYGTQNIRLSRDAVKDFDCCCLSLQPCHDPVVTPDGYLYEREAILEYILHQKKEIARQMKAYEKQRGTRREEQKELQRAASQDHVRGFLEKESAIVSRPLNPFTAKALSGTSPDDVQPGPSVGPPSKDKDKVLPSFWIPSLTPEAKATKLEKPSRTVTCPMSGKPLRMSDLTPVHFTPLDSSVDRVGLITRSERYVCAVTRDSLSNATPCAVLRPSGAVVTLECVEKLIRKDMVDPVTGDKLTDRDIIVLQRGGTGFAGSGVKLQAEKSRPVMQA
UniProt Q9UHR5: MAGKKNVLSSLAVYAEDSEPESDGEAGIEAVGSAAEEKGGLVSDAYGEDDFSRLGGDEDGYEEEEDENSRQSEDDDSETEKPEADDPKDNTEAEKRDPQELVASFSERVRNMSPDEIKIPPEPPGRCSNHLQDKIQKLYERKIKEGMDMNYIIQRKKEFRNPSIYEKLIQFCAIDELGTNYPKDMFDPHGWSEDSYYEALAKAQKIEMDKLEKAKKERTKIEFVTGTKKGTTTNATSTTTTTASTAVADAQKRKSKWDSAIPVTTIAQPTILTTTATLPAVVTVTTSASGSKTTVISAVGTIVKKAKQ
UniProt Q9UHJ3: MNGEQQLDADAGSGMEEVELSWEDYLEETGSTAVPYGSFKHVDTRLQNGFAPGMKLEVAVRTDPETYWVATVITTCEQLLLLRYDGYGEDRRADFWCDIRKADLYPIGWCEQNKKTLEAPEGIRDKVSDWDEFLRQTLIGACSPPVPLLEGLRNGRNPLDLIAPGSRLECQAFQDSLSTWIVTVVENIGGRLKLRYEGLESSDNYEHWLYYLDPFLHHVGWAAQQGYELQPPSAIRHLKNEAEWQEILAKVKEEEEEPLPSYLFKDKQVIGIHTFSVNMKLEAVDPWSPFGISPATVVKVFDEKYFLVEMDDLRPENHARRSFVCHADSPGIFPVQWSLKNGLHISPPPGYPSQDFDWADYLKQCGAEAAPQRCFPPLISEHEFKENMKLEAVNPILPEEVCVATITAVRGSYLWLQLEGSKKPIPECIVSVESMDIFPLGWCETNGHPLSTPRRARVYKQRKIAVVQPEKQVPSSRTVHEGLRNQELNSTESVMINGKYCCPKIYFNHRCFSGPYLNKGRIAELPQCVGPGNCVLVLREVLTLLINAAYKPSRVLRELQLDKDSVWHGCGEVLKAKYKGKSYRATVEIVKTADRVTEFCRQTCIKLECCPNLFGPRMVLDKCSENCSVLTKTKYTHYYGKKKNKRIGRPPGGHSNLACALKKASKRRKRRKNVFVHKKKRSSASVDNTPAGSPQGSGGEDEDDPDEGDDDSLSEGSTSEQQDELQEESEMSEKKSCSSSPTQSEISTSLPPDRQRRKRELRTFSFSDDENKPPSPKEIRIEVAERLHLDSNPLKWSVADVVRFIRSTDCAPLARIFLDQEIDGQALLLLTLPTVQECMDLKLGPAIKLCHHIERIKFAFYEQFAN
UniProt Q9Y3C1: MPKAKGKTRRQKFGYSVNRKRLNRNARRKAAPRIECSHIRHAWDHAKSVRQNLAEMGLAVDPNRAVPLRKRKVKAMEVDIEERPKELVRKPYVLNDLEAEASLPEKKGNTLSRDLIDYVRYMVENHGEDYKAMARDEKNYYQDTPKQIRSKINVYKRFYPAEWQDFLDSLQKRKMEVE
UniProt Q9UK61: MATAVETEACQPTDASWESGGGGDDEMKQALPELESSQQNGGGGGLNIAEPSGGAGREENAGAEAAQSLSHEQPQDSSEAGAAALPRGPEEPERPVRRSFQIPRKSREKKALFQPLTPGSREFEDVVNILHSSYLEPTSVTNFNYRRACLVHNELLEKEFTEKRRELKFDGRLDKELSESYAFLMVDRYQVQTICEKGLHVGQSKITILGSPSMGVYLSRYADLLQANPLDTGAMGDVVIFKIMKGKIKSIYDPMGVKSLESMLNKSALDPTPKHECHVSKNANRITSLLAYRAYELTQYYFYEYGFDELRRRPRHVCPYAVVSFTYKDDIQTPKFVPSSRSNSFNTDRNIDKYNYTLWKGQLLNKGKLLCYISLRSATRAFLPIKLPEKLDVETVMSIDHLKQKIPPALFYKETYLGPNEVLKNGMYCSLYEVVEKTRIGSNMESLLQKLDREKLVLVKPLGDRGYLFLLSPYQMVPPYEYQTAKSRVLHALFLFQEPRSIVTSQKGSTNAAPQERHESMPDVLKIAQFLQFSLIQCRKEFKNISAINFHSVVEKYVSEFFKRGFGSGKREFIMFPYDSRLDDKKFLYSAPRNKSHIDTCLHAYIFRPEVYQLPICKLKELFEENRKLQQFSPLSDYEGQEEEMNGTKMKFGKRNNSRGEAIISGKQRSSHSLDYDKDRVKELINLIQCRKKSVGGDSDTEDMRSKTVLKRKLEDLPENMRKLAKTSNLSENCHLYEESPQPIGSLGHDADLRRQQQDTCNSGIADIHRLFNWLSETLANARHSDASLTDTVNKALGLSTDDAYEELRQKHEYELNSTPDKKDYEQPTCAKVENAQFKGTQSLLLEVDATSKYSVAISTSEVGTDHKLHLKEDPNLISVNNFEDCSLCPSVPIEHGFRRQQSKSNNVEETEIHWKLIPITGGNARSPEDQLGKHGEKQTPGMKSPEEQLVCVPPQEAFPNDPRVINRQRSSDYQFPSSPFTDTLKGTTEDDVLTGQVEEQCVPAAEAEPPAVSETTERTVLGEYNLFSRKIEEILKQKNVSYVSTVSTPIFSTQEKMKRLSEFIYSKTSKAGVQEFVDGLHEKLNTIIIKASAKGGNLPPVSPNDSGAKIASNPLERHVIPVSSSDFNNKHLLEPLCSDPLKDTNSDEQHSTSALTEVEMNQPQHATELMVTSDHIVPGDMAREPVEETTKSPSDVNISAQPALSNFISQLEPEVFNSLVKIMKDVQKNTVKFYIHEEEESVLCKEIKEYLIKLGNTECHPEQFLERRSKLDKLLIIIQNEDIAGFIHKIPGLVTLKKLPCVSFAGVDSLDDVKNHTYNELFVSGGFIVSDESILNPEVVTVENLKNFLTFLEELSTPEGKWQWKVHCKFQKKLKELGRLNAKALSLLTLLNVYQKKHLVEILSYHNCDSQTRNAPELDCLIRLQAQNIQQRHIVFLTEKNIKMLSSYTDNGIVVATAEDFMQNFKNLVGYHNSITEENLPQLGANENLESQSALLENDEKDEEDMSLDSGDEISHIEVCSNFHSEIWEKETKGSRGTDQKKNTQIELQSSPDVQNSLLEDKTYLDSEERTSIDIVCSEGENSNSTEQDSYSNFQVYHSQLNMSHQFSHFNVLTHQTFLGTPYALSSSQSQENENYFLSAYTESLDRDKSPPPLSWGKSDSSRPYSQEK
UniProt Q9UJW0, whole entry, looked up: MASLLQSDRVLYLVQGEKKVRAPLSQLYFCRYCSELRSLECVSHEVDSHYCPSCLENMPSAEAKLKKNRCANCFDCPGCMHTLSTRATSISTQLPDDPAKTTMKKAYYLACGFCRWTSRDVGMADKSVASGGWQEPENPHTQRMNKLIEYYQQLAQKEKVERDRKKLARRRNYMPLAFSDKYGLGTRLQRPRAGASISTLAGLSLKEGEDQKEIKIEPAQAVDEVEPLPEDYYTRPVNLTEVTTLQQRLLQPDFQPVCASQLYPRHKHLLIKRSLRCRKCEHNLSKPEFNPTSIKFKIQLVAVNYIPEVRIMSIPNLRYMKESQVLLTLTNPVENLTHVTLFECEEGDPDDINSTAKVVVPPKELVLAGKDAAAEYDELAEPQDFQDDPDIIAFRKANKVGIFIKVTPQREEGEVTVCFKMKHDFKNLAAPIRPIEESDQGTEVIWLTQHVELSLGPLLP
UniProt Q9UL46, whole entry: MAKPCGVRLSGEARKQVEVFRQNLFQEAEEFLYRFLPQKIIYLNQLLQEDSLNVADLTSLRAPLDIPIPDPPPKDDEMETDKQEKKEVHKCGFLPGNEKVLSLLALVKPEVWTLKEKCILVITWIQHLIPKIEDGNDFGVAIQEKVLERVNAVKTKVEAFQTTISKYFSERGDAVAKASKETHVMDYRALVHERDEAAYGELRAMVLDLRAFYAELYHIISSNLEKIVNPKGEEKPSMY
UniProt Q9ULC4: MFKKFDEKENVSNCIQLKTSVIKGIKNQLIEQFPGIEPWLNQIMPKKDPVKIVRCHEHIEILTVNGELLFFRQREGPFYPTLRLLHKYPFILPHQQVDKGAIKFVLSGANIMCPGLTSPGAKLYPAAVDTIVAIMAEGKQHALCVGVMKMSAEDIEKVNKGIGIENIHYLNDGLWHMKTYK
UniProt Q9Y3A3: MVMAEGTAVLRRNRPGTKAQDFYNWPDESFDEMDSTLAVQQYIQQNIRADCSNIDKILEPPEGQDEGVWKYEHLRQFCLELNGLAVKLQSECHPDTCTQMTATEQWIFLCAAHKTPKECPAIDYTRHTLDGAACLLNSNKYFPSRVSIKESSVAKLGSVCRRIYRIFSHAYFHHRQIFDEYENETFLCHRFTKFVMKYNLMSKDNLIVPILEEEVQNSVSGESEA

compound: COC(=O)/C=C/c1ccccc1 [methyl cinnamate]; assay: log2 ratio of iodoacetamide-alkyne labeling of the cysteine site, DMSO over compound (competition); higher = stronger covalent engagement of the cysteine by the compound, active = 1 or more; settings: 500 µM; treatment time 1 h; system: HEK293T cell lysate
Method in brief: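 After 1 h at ambient temperature with vehicle or electrophile (500 µM), HEK293T lysate (2 mg/mL) was labelled for 1 h with iodoacetamide alkyne and clicked to sCIP-TMT reagents. Pooled samples were trypsin-digested overnight at 37 °C, streptavidin-enriched, acid-eluted and analysed by Orbitrap Eclipse LC-MS/MS with FAIMS, then quantified in FragPipe over three replicates with duplicate channels. A cysteine's log2 competition ratio is its mean control-channel over mean compound-channel reporter intensity. Cysteines quantified in only one replicate were not included.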

log2 ratio of iodoacetamide-alkyne labeling, inactive:
UniProt Q9Y3U8_C48 0.182
NISCH C185 (UniProt Q9Y2I1) 0.0924
UniProt Q9UI30_C100 -0.0185
PRPF19 C16 (UniProt Q9UMS4) 0.167
DIS3 C799 (UniProt Q9Y2L1) 0.05
SLC25A13 C503 (UniProt Q9UJS0) 0.0376
TBC1D24 C8 (UniProt Q9ULP9) 0.0354
ANAPC2 C421 (UniProt Q9UJX6) 0.112
GTF3C4 C814 (UniProt Q9UKN8) 0.0649
TPX2 C301 (UniProt Q9ULW0) 0.514
ZC3H4 C1302 (UniProt Q9UPT8) 0.081
HEG1 C1360 (UniProt Q9ULI3) 0.237
UniProt Q9Y3D0_C93 -0.165
RABGAP1 C1026 (UniProt Q9Y3P9) -0.203
LEMD3 C346 (UniProt Q9Y2U8) 0.335
PRPF19 C5 (UniProt Q9UMS4) 0.298
RABGAP1 C476 (UniProt Q9Y3P9) -0.0391
MINPP1 C475 (UniProt Q9UNW1) 0.23
CORO1C C456 (UniProt Q9ULV4) 0.29
NOSIP C250 (UniProt Q9Y314) 0.0786
SAP30BP C172 (UniProt Q9UHR5) 0.0983
UniProt Q9UPN4_C181 0.138
PRR12 C322 (UniProt Q9ULL5) 0.0745
UniProt Q9UHJ3_C142 0.0143
NOP16 C36 (UniProt Q9Y3C1) 0.158
NCKAP1 C618 (UniProt Q9Y2A7) 0.2
UniProt Q9UK61_C538 -0.057
MACF1 C5049 (UniProt Q9UPN3) 0.0197
DCTN4 C41 (UniProt Q9UJW0) 0.0768
PSME2 C91 (UniProt Q9UL46) 0.304
ZMYND8 C1062 (UniProt Q9ULU4) 0.143
MCTS1 C113 (UniProt Q9ULC4) 0.0072
HECTD1 C2224 (UniProt Q9ULT8) 0.278
UniProt Q9Y3A3_C134 0.173
TRIM33 C461 (UniProt Q9UPN9) 0.153
DIS3 C194 (UniProt Q9Y2L1) -0.116
NISCH C403 (UniProt Q9Y2I1) -0.15

Looked up one by one from above, two records:
log2 ratio of iodoacetamide-alkyne labeling, inactive:
PRPF19 C16 (UniProt Q9UMS4) 0.167
LEMD3 C346 (UniProt Q9Y2U8) 0.335
